Assay results taken from PubChem BioAssay AID662 (National Center for Advancing Translational Sciences (NCATS), 2007).
Where “and” joins values, the source holds several entries; their conditions need not be identical. Equal entries are not always repeated. The list shows a part of the results. These are further read-outs of the screen, such as a control signal, another cell line or another target. No call is given for them. Compounds called inactive in the main read-out are mostly missing here. Potencies come from curve fits of mixed quality, noted in brackets.

Assay: Cell signaling CRE-BLA (Fsk stim)
Settings: CHO CRE-bla reporter (cAMP response element driving beta-lactamase), forskolin EC10, beta-lactamase ratio; measured here: 460 nm blue channel
How it was run: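 Titrated compounds plus EC10 NKH 477 on CHO CRE-bla cells, 3 h, 37 °C. CCF4, 2 h RT. Ratio 460/530 nm → AC50.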
In the case of `Nc1sccc1C(=O)c1ccc(Cl)cc1`, the AC50 is reported as 25.1 µM [falling, single point].
With `CCCNc1nc2c(c(=O)[nH]c(=O)n2C)n1CCC(C)C` the AC50 was 10 µM [rising, partial curve].
For `COC(=O)c1ccccc1NC(=O)c1ccc(COc2ccccc2)o1`, the AC50 was 5.01 µM [rising, full curve].
In the case of `COc1ncc2nc(CCc3ccccc3)c(=O)n(CCc3ccccc3)c2n1`, the AC50 is reported as 25.1 µM [rising, single point].
With `CCCCCSc1nc2c(c(=O)[nH]c(=O)n2C)n1CC` the AC50 was 6.31 µM [rising, partial curve].
For `O=C(Nc1ccc2c(c1)OCO2)C1CCCN(c2nc3ccccc3s2)C1` (configuration not stated), the AC50 was 0.0501 µM [falling, full curve, poor fit].
For `CCn1c(=O)c2cc(C(=O)NCCN3CCOCC3)sc2c2ccccc21`, the AC50 was 1.58 µM [rising, partial curve].
With `C=C(C)c1nc(N)nc(N)n1` the AC50 was 0.794 µM [falling, full curve].
For `O=C(OC1CCOC1=O)c1cncc(Br)c1` (configuration not stated), the AC50 was 2.51 µM [falling, single point].
In the case of `CCC(=O)N(Cc1cc2cc(OC)ccc2[nH]c1=O)c1cc(C)ccc1C`, the AC50 is reported as 12.6 µM [rising, single point].
For `COC(=O)c1cccc(NC(=O)CN2CCN(c3ccc(OC)cc3)CC2)c1`, the AC50 was 10 µM [rising, single point].
In the case of `N/C(=N/O)c1nc(N2CCCCC2)nc(N2CCCCC2)n1`, the AC50 is reported as 0.316 µM [falling, partial curve].
With `COc1ccc(N/C(=N\c2nc(C)cc(C)n2)NC(C)=O)cc1OC` the AC50 was 5.01 µM [rising, single point].
For `CC(C)Cn1c(SC(C)C(=O)Nc2ccc3c(c2)OCCO3)nc2ccccc2c1=O` (configuration not stated), the AC50 was 3.98 µM [rising, full curve].
In the case of `c1ccc(Nc2cc(-c3ccccc3)nc3ncnn23)cc1`, the AC50 is reported as 10 µM [rising, partial curve].
For `CCN(CC)CCn1c(-c2ccccc2)nc2c(NC3CCCCC3)nc(C)nc21`, the AC50 was 10 µM [rising, partial curve].
For `CC(C)OC(=O)c1cc(NC(=O)C2C3CCC(O3)C2C(=O)O)cc(C(=O)OC(C)C)c1` (configuration not stated), the AC50 was 12.6 µM [rising, partial curve].
In the case of `CC(=O)Oc1ccc(/C=C\C(=O)C[C@@H]2O[C@@H](Oc3cc(OC(C)=O)c4c(c3)O[C@@H](c3ccc(OC(C)=O)cc3)CC4=O)[C@H](OC(C)=O)[C@H](OC(C)=O)[C@@H]2OC(C)=O)cc1`, the AC50 is reported as 25.1 µM [falling, partial curve, poor fit].
For `COCCn1c(=O)c(-c2ccccc2)nc2cnc(N3CCOCC3)nc21`, the AC50 was 10 µM [rising, partial curve].
For `O=C(Nc1ccc2c(c1)OCCO2)C1CCCN(c2ncccn2)C1` (configuration not stated), the AC50 was 10 µM [rising, single point].
For `CC1=C(C(=O)OC2CCCCC2)C(c2cccnc2)n2nnnc2N1` (configuration not stated), the AC50 was 0.251 µM [rising, full curve, poor fit].
In the case of `O=C(NC1=NCCS1)c1cc(-c2ccccc2)nn1-c1ccccc1`, the AC50 is reported as 0.126 µM [falling, full curve].
With `CCCc1nc(SCC(=O)Nc2ccccc2OC)c2c(=O)n(C)c(=O)n(C)c2n1` the AC50 was 2 µM [rising, full curve].
For `Cc1ccc(C)c(C(C)NC(=O)C2C3CCC(O3)C2C(=O)O)c1` (configuration not stated), the AC50 was 10 µM [rising, partial curve].
With `CCOC(=O)C1=C(C)Nc2ncnn2C1/C=C/c1ccccc1` (configuration not stated) the AC50 was 10 µM [rising, partial curve].
For `CCn1c(C2CC(=O)N(c3cc(C)cc(C)c3)C2)nc2ccccc21` (configuration not stated), the AC50 was 10 µM [rising, single point].
For `CC(C)OC(=O)c1cccc(C(=O)OCc2ccco2)n1`, the AC50 was 12.6 µM [falling, single point].
In the case of `O=C(CCn1c(=O)oc2ccccc21)NCc1cccs1`, the AC50 is reported as 0.00398 µM [falling, full curve, poor fit].
In the case of `COc1cc(C2c3c(-c4cc(Cl)c(C)cc4O)n[nH]c3C(=O)N2Cc2cccnc2)ccc1O` (configuration not stated), the AC50 is reported as 1.58 µM [rising, partial curve].
With `COc1ccc(O)c(-c2cc(-c3cccc(Br)c3)n[nH]2)c1` the AC50 was 25.1 µM [falling, single point].
With `COCc1nc2c([nH]1)c(=O)n(C)c(=O)n2CC(C)C` the AC50 was 25.1 µM [rising, single point] and 2.51 µM [rising, full curve].
With `CN1CCCN(CC(O)COCc2cccs2)CC1` (configuration not stated) the AC50 was 5.01 µM [falling, single point].
In the case of `CCOC(=O)CSC1=Nc2ccccc2C2=NC(CC(=O)NCc3ccc(OC)cc3)C(=O)N12` (configuration not stated), the AC50 is reported as 0.631 µM [falling, partial curve].
For `CCOc1ccc(Cl)cc1S(=O)(=O)n1nnc2ccccc21`, the AC50 was 12.6 µM [falling, single point].
For `Cc1ccc(NC(=O)C2CCN(S(=O)(=O)c3c(C)n[nH]c3C)CC2)nc1`, the AC50 was 25.1 µM [falling, single point].
In the case of `CCCC[C@@H]1C[C@H]1C(NC(=O)c1cccnc1)c1ccc(-c2ccccc2)cc1` (some centres not stated), the AC50 is reported as 12.6 µM [rising, partial curve].
With `Cc1nc2cnc(Nc3ccccc3)nc2n(Cc2cccs2)c1=O` the AC50 was 15.8 µM [rising, partial curve].
In the case of `N#Cc1c(NC(=O)CSc2ncn(-c3ccccc3)n2)sc2c1CCCC2`, the AC50 is reported as 0.501 µM [falling, full curve, poor fit].
With `COc1cccc2sc(Nc3nnc(-c4cccs4)o3)nc12` the AC50 was 3.98 µM [falling, partial curve].
In the case of `CCc1nc2ccccc2n1Cc1cc(=O)n2cc(C)ccc2n1`, the AC50 is reported as 12.6 µM [rising, partial curve, poor fit].
With `Cc1ccc2oc3c(c(=O)c2c1)C(c1cccc(Cl)c1)N(CCCN1CCOCC1)C3=O` (configuration not stated) the AC50 was 15.8 µM [rising, single point].
With `Cc1onc(-c2ccccc2)c1C(=O)Oc1cccnc1` the AC50 was 25.1 µM [rising, single point].
For `CC(=O)c1cc2c(cc1NC(=O)c1cc(C)nn1-c1ccccc1)OCO2`, the AC50 was 12.6 µM [rising, partial curve].
In the case of `CCOc1ccccc1NC(=O)Cn1cnc2c(nnn2-c2cccc(OC)c2)c1=O`, the AC50 is reported as 7.94 µM [rising, partial curve].
For `Cc1cc(NC(=O)c2ccc3nc(C)sc3c2)no1`, the AC50 was 3.98 µM [falling, single point].
In the case of `Cn1c(CCN2CCCCC2)nc2cc(NS(=O)(=O)c3ccc(Cl)cc3)ccc21`, the AC50 is reported as 15.8 µM [falling, partial curve].
For `O=C(COc1ccc(-n2cnnn2)cc1)NCCc1ccc(F)cc1`, the AC50 was 0.126 µM [rising, full curve, poor fit].
For `CC(C)CCNC(=O)CCNS(=O)(=O)c1ccc(Cl)cc1`, the AC50 was 3.98 µM [falling, full curve].
With `CC(C)N(Cc1nc(-c2ccc(Cl)cc2)no1)C(=O)C12CC3CC(CC(C3)C1)C2` the AC50 was 25.1 µM [falling, single point].
With `COCC1C2CC[C@H]3C(OCc4ccc(F)cc4C(F)(F)F)OC[C@]4(C)[C@H]3C2=C(CN4C(=O)OC(C)(C)C)[C@H](C)C1COC` (some centres not stated) the AC50 was 10 µM [rising, partial curve].
In the case of `O=C(OCc1ccccc1)C1CCCN1C(=O)c1cccs1` (configuration not stated), the AC50 is reported as 3.98 µM [falling, partial curve].
In the case of `CS(=O)(=O)c1nc(-c2cccs2)cc(C(F)(F)F)n1`, the AC50 is reported as 0.316 µM [falling, full curve].
In the case of `Cc1ccc(C)c(-c2nc3cc(N)ccc3o2)c1`, the AC50 is reported as 25.1 µM [rising, single point].
In the case of `O=C(Nc1cccs1)Nc1ccccc1Cl`, the AC50 is reported as 0.794 µM [falling, full curve].
With `O=C(COC(=O)c1ccccn1)Nc1ncc(C(F)(F)F)cc1Cl` the AC50 was 0.00398 µM [falling, full curve, poor fit].
In the case of `O=C(c1ccccc1)c1nnc(-c2ccncc2)o1`, the AC50 is reported as 0.00398 µM [rising, full curve, poor fit].
For `N=c1c2c(-c3ccccc3)c(-c3ccccc3)n(Cc3ccco3)c2ncn1Cc1ccco1`, the AC50 was 25.1 µM [falling, single point].
For `CCn1c(=O)c(-c2ccccc2)c(O)c2ccccc21`, the AC50 was 10 µM [falling, single point].
In the case of `O=C(O)C1C2CCC(C2)C1C(=O)NCc1ccccn1` (configuration not stated), the AC50 is reported as 0.1 µM [falling, full curve].
In the case of `Cc1ccccc1Cn1cnc2c(cnn2C(C)(C)C)c1=O`, the AC50 is reported as 20 µM [rising, single point].
In the case of `COc1ccccc1-c1nnc2n1N=C(C(C)(C)C)CS2`, the AC50 is reported as 25.1 µM [rising, single point].
In the case of `Cn1nnnc1SCC(=O)Nc1c(Cl)cccc1Cl`, the AC50 is reported as 0.631 µM [falling, full curve].
With `Cc1ccc(S(=O)(=O)C2(C(=O)Nc3ccc(F)cc3)CC2)cc1` the AC50 was 0.0631 µM [falling, full curve].
With `Cc1cc(C)n(Cc2ccc(C(=O)O)o2)n1` the AC50 was 20 µM [falling, single point].
For `CCOC(=O)C1=C(C)NC(C)=C(C(=O)OC)[C@H]1c1cccc(Cl)c1Cl`, the AC50 was 7.94 µM [rising, partial curve].
With `O=C(NCc1ccco1)c1cc(-c2ccccn2)nc2ccccc12` the AC50 was 12.6 µM [falling, single point].
In the case of `CCC(c1nnnn1Cc1ccco1)N(CCc1ccccc1)Cc1cc2ccc(OC)cc2[nH]c1=O` (configuration not stated), the AC50 is reported as 10 µM [rising, single point].
